Experimental data as given in PubChem BioAssay AID2288 (National Center for Advancing Translational Sciences (NCATS), 2010).
Screen size: about 340,000 compounds; fewer than 10 were called active. Listed are the inconclusive results; actives and inactives stand elsewhere. The call rests on the fitted dose curve; in most records, active means well fitted curve in the direction sought with a large enough effect; inconclusive means small, poorly fitted or top-dose-only effect, or another doubt; inactive means no such curve, though single readings can be large or run the other way.

experiment: qHTS Assay for Modulators of miRNAs and/orActivators of miR-21; details: HeLa miR-21 FLuc reporter, luciferase, 48 h

Row | Compound | Potency
1 | O=[N+]([O-])c1ccc2c(c1)C=Nc1ccccc1O2 | inconclusive: 16.5 µM
2 | CN(C)C(=O)c1c([N+](=O)[O-])cc([N+](=O)[O-])cc1[N+](=O)[O-] | inconclusive: 20.7 µM
3 | O=[N+]([O-])c1cc([N+](=O)[O-])c(Nc2ccccn2)c([N+](=O)[O-])c1 | inconclusive: 18.5 µM
